{"source": "PubChem BioAssay AID540276", "about": "(National Center for Advancing Translational Sciences (NCATS), 2011)", "note": "Among all 300,000 compounds or so, about 5,400 (1.8%) were called active. This list was built around the results that the source calls inconclusive (neither active nor inactive); the mix of calls is not that of the screen. Calls come from the whole dose curve; tested in HEK293 cells. A potency beside an inconclusive call is a rough fit, not a confirmed value. % is set by controls: 0 for no effect and ±100 for the full control effect; potency is the fitted concentration of half-maximal effect."}
{"assay": "qHTS for inhibitors of binding or entry into cells for Marburg Virus", "details": "Marburg virus pseudotyped entry inhibition, cell reporter; activity change, negative = inhibition: at 37.8 µM (top of the series) unless noted"}
{"smiles": "O=C(NC1CCCN(Cc2ccc(Cl)cc2)C1)c1c(F)ccc(F)c1F", "note": "(centres undefined)", "Potency": "inconclusive: 22.4 µM [inhibitor, single point]"}
{"smiles": "CSc1ncccc1C(=O)OCC(=O)Nc1ccc(S(=O)(=O)N2CCCC2)cc1", "Potency": "inactive"}
{"smiles": "CCN1CC2=C(OC(N)=C(C#N)C2c2ccccc2)/C(=C\\c2ccccc2)C1", "note": "(centres undefined)", "Potency": "inconclusive: 35.5 µM [inhibitor, single point]"}
{"smiles": "Cc1ccc(CNC(=O)CN(c2ccc(C(C)C)cc2)S(=O)(=O)c2c(C)n[nH]c2C)cc1", "Potency": "inconclusive: 35.5 µM [inhibitor, single point]"}
{"smiles": "COc1ccccc1/C=C/C(=O)Nc1cccc(C(C)=O)c1", "Potency": "inconclusive: 35.5 µM [inhibitor, single point]"}
{"smiles": "CCN(CC)S(=O)(=O)c1ccc(N/N=C/c2ccc(OC)c(OC)c2OC)nc1", "Potency": "inconclusive: 0.251 µM [inhibitor, full curve, poor fit]"}
{"smiles": "C#CC[N+]1(CC#Cc2ccccc2)CCCC1", "Potency": "inactive"}
{"smiles": "Cc1ccc(C)c(NC(=O)CSc2nc3ccc(N4C(=O)c5ccccc5C4=O)cc3s2)c1", "Potency": "inactive"}
{"smiles": "CN(C)/C=C/C(=O)c1cc(F)cc(C(F)(F)F)c1", "Potency": "inconclusive: 6.31 µM [activator, partial curve, poor fit]"}
{"smiles": "CC1CCN(CCOc2ccc(OCc3ccccc3)cc2)CC1", "Potency": "inconclusive: 0.231 µM [activator, single point]"}
{"smiles": "CCc1[nH]nc(C(=O)N2CCCC(C(=O)c3cccc(OC(C)C)c3)C2)c1C", "note": "(centres undefined)", "Potency": "inactive"}
{"smiles": "Cc1ccc2nc(N(CCCN(C)C)C(=O)c3sc4ccccc4c3Cl)sc2c1", "Potency": "inactive"}
{"smiles": "Cc1cc(C)c2c(=O)c3c(oc2c1)C(=O)N(Cc1ccc(F)cc1)C3c1cccc(O)c1", "note": "(centres undefined)", "Potency": "inconclusive: 35.5 µM [inhibitor, single point]"}
{"smiles": "CCn1c(N)[n+](CC(=O)Nc2ccc(SC(F)F)cc2)c2ccccc21", "Potency": "active: 4.47 µM"}
{"smiles": "Cc1cc(C)c2c(c1)cc(C)c1nnc(SCC(=O)Nc3ccc(S(=O)(=O)N4CCCCC4)cc3)n12", "Potency": "inconclusive: 14.1 µM [inhibitor, single point]"}
{"smiles": "CC(=O)Oc1c(Cl)cc(Cl)cc1/C=C/c1ccc2ccccc2n1", "Potency": "inactive"}
{"smiles": "COc1ccccc1N1CCN(C2CCCN(C(=O)CN3CCCC3=O)C2)CC1", "note": "(centres undefined)", "Potency": "inactive"}
{"smiles": "C#CCOc1ccc(C2C3=C(CCCC3=O)N(CC(=O)O)C3=C2C(=O)CCC3)cc1Br", "Potency": "inactive"}
{"smiles": "CC(C)c1nc2cc3ccccc3cc2[nH]1", "Potency": "inconclusive: 14.1 µM [inhibitor, single point]"}
{"smiles": "CC(=O)NC(Cc1c[nH]c2ccccc12)C(=O)Nc1ccc2c(c1)OCO2", "note": "(centres undefined)", "Potency": "inconclusive: 35.5 µM [activator, single point]"}
{"smiles": "CCOc1ccc(NC(=O)[C@H](Cc2ccccc2)NC(=O)C2CCNCC2)cc1", "Potency": "inconclusive: 0.708 µM [inhibitor, full curve, poor fit]"}
{"smiles": "COc1ccc(-c2nc(CS(=O)CC(=O)NC3CCCCC3)c(C)o2)cc1OC", "note": "(centres undefined)", "Potency": "inactive"}
{"smiles": "CNC(=O)c1cc2cc(OC)ccc2oc1=N", "Potency": "inconclusive: 6.51 µM [activator, single point]"}
{"smiles": "Cc1ccc(C)c(NC(=O)CN2C(=O)CSc3nc(C)cc(C)c32)c1", "Potency": "inactive"}
{"smiles": "O=C(CCS(=O)(=O)c1cccs1)Nc1ccc(C(=O)Nc2cccc(Cl)c2)cc1", "Potency": "inconclusive: 3.16 µM [activator, partial curve, poor fit]"}
{"smiles": "O=C(NCCc1ccccc1)c1ccc2c(c1)CCN2S(=O)(=O)c1ccc(Br)cc1", "Potency": "inconclusive: 8.91 µM [inhibitor, partial curve, poor fit]"}
{"smiles": "COc1ccccc1CNC(=O)c1ccc(OCC2CCCO2)cc1", "note": "(centres undefined)", "Potency": "inconclusive: 35.5 µM [activator, partial curve, poor fit]"}
{"smiles": "C=CC1CN2CCC1CC2c1[nH]c2ccccc2c1CCO", "note": "(centres undefined)", "Potency": "inactive"}
{"smiles": "NC1CCc2cc(O)c(O)cc2C1", "note": "(centres undefined)", "Potency": "inconclusive: 10 µM [inhibitor, partial curve, poor fit]"}
{"smiles": "CC1(OC(=O)c2ccc(Cl)nc2)C(=O)C=C2C=C(C3CC3)OC=C2C1=O", "note": "(centres undefined)", "Potency": "inconclusive: 2.37 µM [activator, partial curve, poor fit]"}
{"smiles": "CCn1cc(C(=O)O)c(=O)c2cnc(N3CCN(C(=S)NC(=O)c4ccccc4)CC3)nc21", "Potency": "inactive"}
{"smiles": "Cc1ccc(C(OCC(O)CN2CCCCC2)c2ccccc2)cc1", "note": "(centres undefined)", "Potency": "inconclusive: 11.2 µM [inhibitor, partial curve, poor fit]"}
{"smiles": "COc1ccc(-c2cc3nc(-c4ccccc4)cc(N4CCC5(CC4)OCCO5)n3n2)cc1", "Potency": "inconclusive: 6.51 µM [inhibitor, partial curve]"}
{"smiles": "O=C(Nc1ccc(SC(F)F)cc1)c1cc(-c2cccs2)on1", "Potency": "inactive"}
{"smiles": "N=c1c(C(=O)NC2CCCC2)cc2c(=O)n3ccccc3nc2n1CC1CCCO1", "note": "(centres undefined)", "Potency": "inconclusive: 35.5 µM [inhibitor, single point]"}
{"smiles": "CC(=O)c1ccc(NC(=O)C(C)Sc2ccccn2)cc1", "note": "(centres undefined)", "Potency": "inactive"}
{"smiles": "CC(=O)c1ccc(NC(=O)CSc2nnc(NC(=O)CN3CCOCC3)s2)cc1", "Potency": "inconclusive: 35.5 µM [activator, single point]"}
{"smiles": "CCc1ccc(NC(=O)COC(=O)c2cccs2)cc1", "Potency": "inconclusive: 14.1 µM [activator, single point]"}
{"smiles": "COc1ccc(-n2nc3c(c2NC(=O)C2CC2)CS(=O)(=O)C3)cc1", "Potency": "inconclusive: 35.5 µM [activator, partial curve, poor fit]"}
{"smiles": "COCCn1c(SCc2cc(C(C)=O)ccc2OC)nc2cc(Cl)ccc2c1=O", "Potency": "inconclusive: 5.62 µM [activator, full curve, poor fit]"}
{"smiles": "O=C(CSc1ccccc1C(=O)O)NCc1ccccc1", "Potency": "inconclusive: 0.891 µM [activator, single point]"}
{"smiles": "O=C(OCc1ccccc1C(F)(F)F)c1cc([N+](=O)[O-])ccc1N1CCOCC1", "Potency": "inconclusive: 10 µM [inhibitor, partial curve]"}
{"smiles": "O=C(NCc1ccccc1Cl)C(=O)NCC1OCCCN1S(=O)(=O)c1cccs1", "note": "(centres undefined)", "Potency": "inactive"}
{"smiles": "O=C(OCc1nnc(-c2ccccc2)o1)c1cc(=O)c2ccccc2o1", "Potency": "inactive"}
{"smiles": "CCc1c(C(=O)N2CCN(c3ccccc3F)CC2)[nH]c(C)c1C(C)=O", "Potency": "inconclusive: 0.0041 µM [activator, full curve, poor fit]"}
{"smiles": "NNC(=O)COc1ccc(-c2n[nH]c(C(F)(F)F)c2-c2ccc(Br)cc2)c(O)c1", "Potency": "inactive"}
{"smiles": "S=c1[nH]nc(COc2ccccc2)n1/N=C/c1cccs1", "Potency": "inconclusive: 5.01 µM [activator, full curve, poor fit]"}
{"smiles": "COc1ccc(CNCCC(c2ccc(F)cc2)c2ccc(OC(C)C)cc2)cc1OC", "note": "(centres undefined)", "Potency": "inconclusive: 10 µM [inhibitor, partial curve, poor fit]"}
{"smiles": "CS(=O)(=O)c1ccc2nc(NC(=O)Nc3cccc(Cl)c3)sc2c1", "Potency": "inconclusive: 23.1 µM [inhibitor, single point]"}
{"smiles": "O=C(Cn1cnc2sc(-c3ccccc3)cc2c1=O)NCc1ccccc1", "Potency": "inconclusive: 5.8 µM [inhibitor, partial curve, poor fit]"}
{"smiles": "COc1ccc(NC(=O)CN(C)C(=O)/C=C/c2ccc(S(=O)(=O)N3CCCCCC3)cc2)cc1", "Potency": "inconclusive: 3.16 µM [activator, single point]"}
{"smiles": "CCOc1ccccc1NC(=O)Cn1c(=O)n(CCCC(=O)NCCOC)c(=O)c2cc(OC)c(OC)cc21", "Potency": "inactive"}
{"smiles": "O=C(COC(=O)COc1ccc2ccccc2c1)Nc1cc(C(F)(F)F)ccc1N1CCOCC1", "Potency": "inactive"}
{"smiles": "CC1CCCCN1C(=O)CCS(=O)(=O)c1cccc2nonc12", "note": "(centres undefined)", "Potency": "inconclusive: 22.4 µM [activator, single point]"}
{"smiles": "CC(=O)c1ccc(NC(=O)c2ccc3c(c2)N(Cc2cccc(Cl)c2)C(=O)c2ccccc2S3(=O)=O)cc1", "Potency": "inconclusive: 11.2 µM [inhibitor, partial curve]"}
{"smiles": "Cc1ccc(SCc2ccc(C(=O)Nc3nccs3)o2)cc1", "Potency": "inactive"}
{"smiles": "NS(=O)(=O)c1cccc(NC(=O)CSc2nc3ccccc3c(=O)n2CC2CCCO2)c1", "note": "(centres undefined)", "Potency": "inactive"}
{"smiles": "O=C(c1ccc(Cl)c(Cl)c1)N1CCC(=O)N(C(COCc2ccccc2)Cc2ccccc2)CC1", "note": "(centres undefined)", "Potency": "inactive"}
{"smiles": "CCN(CC)CCCNc1ccc2ncn3c4ccc(O)cc4c(=O)c1c23", "Potency": "inconclusive: 1.12 µM [inhibitor, full curve]"}
{"smiles": "CC(C)COCC1CC2(CC(C)(c3csc(N)n3)OC2=O)C(=O)O1", "note": "(centres undefined)", "Potency": "inactive"}
{"smiles": "COc1ccc(CC(=O)Oc2ccc(Cl)cc2Br)cc1S(=O)(=O)N1CCOCC1", "Potency": "inconclusive: 6.31 µM [inhibitor, single point]"}
{"smiles": "CSCCC(NC(=O)c1ccco1)C(=O)NCc1ccc2c(c1)OCO2", "note": "(centres undefined)", "Potency": "inactive"}
{"smiles": "COc1cc(C(C)=O)ccc1OCC(=O)Nc1cc(Cl)ccc1-n1cncn1", "Potency": "inconclusive: 35.5 µM [inhibitor, single point]"}
{"smiles": "COC(=O)CNC(c1ccccc1)c1cc(Br)ccc1NC(=O)OCc1ccccc1", "note": "(centres undefined)", "Potency": "inconclusive: 22.4 µM [inhibitor, partial curve, poor fit]"}
{"smiles": "CC1=NN(c2ccc([N+](=O)[O-])cc2)C(=O)C1", "Potency": "inconclusive: 0.891 µM [inhibitor, single point]"}
{"smiles": "CCn1cc(C2N3CC4(CC)CN2CC(CC)(C3)C4=O)c2ccccc21", "note": "(centres undefined)", "Potency": "inconclusive: 35.5 µM [inhibitor, single point]"}
{"smiles": "CC(=O)Nc1ccc(S(=O)(=O)N(C#N)c2nc(N(C)C)nc(N(C)C)n2)cc1", "activity change, negative = inhibition": "inconclusive: 5.9% [activator]"}
{"smiles": "O=C(Cc1cccs1)Nc1nc2ccccc2s1", "Potency": "inactive"}
{"smiles": "CCc1ccc(NC(=O)c2cc(-c3cccs3)on2)cc1", "Potency": "inconclusive: 11.2 µM [activator, partial curve, poor fit]"}
